Measurements published in PMC6733861.
Results are given in words; binding and its absence hold for the method and conditions named. Binding seen in cells or lysates may run through a third protein. These calls come from enrichment with a bait or labelling near it, and not all partners need be listed. For some assays here: No binding means not detected with the bait.

The chains behind the UniProt entries cited, without tags or fusion partners. Residues count along the entry.
UniProt P19490, residues 19-907: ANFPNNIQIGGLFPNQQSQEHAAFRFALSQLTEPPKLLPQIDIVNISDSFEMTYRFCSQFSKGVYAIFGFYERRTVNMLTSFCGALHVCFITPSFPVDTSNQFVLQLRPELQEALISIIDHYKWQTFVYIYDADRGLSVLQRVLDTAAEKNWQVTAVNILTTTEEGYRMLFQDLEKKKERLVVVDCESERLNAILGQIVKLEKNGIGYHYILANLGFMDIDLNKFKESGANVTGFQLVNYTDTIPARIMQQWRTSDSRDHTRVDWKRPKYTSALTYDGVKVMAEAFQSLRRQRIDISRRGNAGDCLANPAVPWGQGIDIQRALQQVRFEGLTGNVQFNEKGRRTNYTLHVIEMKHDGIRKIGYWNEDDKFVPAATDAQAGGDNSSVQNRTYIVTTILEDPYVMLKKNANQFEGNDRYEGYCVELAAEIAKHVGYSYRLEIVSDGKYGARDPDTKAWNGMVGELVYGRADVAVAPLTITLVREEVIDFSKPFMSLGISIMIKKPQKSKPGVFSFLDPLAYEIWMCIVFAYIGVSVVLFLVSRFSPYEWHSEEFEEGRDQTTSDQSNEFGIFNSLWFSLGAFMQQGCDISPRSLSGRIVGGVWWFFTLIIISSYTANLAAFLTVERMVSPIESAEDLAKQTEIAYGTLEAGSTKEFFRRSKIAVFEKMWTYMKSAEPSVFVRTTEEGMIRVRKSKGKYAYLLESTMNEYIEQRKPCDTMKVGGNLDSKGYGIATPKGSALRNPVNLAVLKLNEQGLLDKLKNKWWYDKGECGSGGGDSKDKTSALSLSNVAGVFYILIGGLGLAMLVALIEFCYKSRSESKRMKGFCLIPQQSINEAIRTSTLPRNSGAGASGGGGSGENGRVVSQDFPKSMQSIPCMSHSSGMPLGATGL
UniProt P19491, residues 22-883: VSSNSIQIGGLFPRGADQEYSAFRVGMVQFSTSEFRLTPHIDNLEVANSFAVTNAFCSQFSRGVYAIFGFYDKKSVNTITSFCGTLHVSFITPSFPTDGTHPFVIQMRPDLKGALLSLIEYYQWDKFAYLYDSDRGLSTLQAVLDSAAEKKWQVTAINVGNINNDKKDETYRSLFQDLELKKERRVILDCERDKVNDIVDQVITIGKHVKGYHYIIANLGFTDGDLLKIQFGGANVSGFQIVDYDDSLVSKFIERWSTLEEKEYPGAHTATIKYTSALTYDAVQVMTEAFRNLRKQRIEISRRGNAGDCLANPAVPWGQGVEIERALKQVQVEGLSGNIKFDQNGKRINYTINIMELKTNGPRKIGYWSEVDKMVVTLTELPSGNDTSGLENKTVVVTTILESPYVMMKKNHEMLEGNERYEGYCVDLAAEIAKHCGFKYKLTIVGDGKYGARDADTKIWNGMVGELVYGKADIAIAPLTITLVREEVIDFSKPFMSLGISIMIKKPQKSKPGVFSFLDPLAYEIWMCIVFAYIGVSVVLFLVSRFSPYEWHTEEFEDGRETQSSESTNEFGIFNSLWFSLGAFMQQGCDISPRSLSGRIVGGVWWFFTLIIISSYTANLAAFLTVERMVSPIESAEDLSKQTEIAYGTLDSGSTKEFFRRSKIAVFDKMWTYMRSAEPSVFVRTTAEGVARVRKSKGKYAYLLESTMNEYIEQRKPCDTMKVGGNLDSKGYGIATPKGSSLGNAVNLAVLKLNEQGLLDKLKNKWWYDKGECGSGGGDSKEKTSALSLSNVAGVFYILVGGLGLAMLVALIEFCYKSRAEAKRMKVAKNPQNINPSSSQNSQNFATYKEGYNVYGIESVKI
UniProt P46462: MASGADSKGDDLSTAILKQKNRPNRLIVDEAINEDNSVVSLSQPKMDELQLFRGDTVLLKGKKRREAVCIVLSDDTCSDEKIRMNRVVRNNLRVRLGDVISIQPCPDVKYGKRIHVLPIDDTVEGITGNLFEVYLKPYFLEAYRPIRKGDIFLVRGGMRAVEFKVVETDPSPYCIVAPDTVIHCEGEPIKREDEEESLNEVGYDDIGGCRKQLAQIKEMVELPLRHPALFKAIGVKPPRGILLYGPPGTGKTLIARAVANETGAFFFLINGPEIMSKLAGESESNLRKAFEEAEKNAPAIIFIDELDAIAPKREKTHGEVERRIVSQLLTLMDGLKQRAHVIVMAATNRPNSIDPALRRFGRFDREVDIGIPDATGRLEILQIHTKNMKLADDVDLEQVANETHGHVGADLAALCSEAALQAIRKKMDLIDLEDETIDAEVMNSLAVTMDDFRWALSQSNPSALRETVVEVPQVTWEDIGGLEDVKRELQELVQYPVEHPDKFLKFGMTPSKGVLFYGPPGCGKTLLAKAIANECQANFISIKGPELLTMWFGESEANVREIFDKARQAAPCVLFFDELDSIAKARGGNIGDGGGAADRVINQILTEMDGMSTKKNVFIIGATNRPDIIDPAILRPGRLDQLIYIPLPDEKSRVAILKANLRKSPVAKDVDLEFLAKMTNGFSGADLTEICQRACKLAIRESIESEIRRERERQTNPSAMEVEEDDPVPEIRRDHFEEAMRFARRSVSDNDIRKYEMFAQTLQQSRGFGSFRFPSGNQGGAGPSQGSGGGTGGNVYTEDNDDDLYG

Columns and labels:
[1] = target: GluA1 subunit of native AMPARs, endogenous (rat (endogenous in hippocampus)) (UniProt P19490); test: affinity purification with mass spectrometry; anti-GluA1 or anti-GluA2 immunoprecipitates from adult rat hippocampal homogenates; Coomassie-stained gel, band of about 97 kDa cut out, in-gel trypsin, MALDI-TOF, MASCOT
[2] = target: GluA2 subunit of native AMPARs, endogenous (rat (endogenous in hippocampus)) (UniProt P19491); test: as above

binding [1]: binds
binding [2]: no binding
Substance: p97 (valonsin-containing protein), endogenous (from UniProt P46462 1-806)
